Test results taken from patent US20230265174A1.
Results are given in words; binding and its absence hold for the method and conditions named. Some results given as binding are weak or reduced against the parent protein; the word gives no strength.

T1: galectin 3-binding protein (LGALS3BP) (UniProt Q08380)
T1 sequence (looked up): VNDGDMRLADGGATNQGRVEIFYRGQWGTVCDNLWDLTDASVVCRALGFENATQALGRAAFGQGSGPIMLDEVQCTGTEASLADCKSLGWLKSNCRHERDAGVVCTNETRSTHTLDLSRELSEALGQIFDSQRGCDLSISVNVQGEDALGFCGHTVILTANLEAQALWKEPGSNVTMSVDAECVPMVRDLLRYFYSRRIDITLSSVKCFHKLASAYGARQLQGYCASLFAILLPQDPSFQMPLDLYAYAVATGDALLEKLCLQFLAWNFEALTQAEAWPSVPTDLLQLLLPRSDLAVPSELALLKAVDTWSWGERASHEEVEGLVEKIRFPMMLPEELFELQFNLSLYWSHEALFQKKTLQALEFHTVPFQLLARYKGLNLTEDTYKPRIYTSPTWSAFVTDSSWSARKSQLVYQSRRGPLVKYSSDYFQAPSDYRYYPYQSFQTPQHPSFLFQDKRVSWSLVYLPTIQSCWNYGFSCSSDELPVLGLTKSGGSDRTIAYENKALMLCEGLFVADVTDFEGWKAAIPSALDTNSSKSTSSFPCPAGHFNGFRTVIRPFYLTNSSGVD

B1: LGALS3BP #67 antibody (CH2-67) (scFv, V domains shown)
VH: AVTLDESGGGLQTPGGALSLVCKGSGFTFSSYGLGWVRQAPGKGLEYVAGISSGGATFYGAAMKGRATISRDNGQSTVRLQLNNLRAEDTATYYCAKDARSGSWSPDAGQIDAWGHGTEVIVSS
VL: LTQPSSVSANLGGTVEITCSGSSGSHYGWFQQKSPGSAPVTLIYSNDKRPSDIPSRFSGSKSGSTATLTITGVQAEDEAVYFCGSIDSSGIFGAGTTLTVL
B2: LGALS3BP #84 antibody (CH2-84) (scFv, V domains shown)
VH: AVTLDESGGGLQTPGGALSLVCKASGFTFNGYGMNWVRQAPGKGLEWVAGIDDTGSYTAYAPAVRGRATISRDNGQSTVRLQLNNLRAEDTATYYCAKGYGDVWGGDEIDAWGHGTEVIVSS
VL: LTQPSSVSANLGGTVKITCSGGSSGYGWHQQKSPGSAPVTVIYDNDKRPSDIPSRFSGSLSGSTNTLTITGVQAEDEAVYFCGGYDNSVGIFGAGTTLTVL

Experiments:
[1] = target: T1, galectin 3-binding protein (LGALS3BP); experiment: ELISA after phage-display biopanning
[2] = target: T1, galectin 3-binding protein (LGALS3BP); experiment: functional analysis of antibody candidates (FIG. 5), method not described

Binder | binding [1] | binding [2]
B1 | binds | binds
B2 | binds | binds
